Taken from: PubChem BioAssay AID602196 (INSERM, 2012)

- Aim: 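Genes whose knock-down alters cisplatin killing of lung cancer cells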
- Cell system: human A549 lung cancer cells
- Reagents: siRNA pair against human genes
- Timing: 48 h transfection before cisplatin; time from cisplatin to read-out not stated
- Treatment: cisplatin at a dose killing half of control-siRNA cells; exact dose and duration not given
- Measurement: 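Cisplatin cell death as a shift from the 50% death seen with control siRNA; siRNAs toxic or growth-blocking alone scored 0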
- Reading the numbers: two-siRNA summed score (-2 to +2): higher = both siRNAs protect from cisplatin killing; -2 means both sensitise; mean protection from cisplatin (shift in death) and protection from cisplatin (shift in death), siRNA C: higher = protection from cisplatin killing
- Active means: 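siRNAs harmful alone (LDH or WST-1) get 0; others get +1 for less and -1 for more cisplatin killing; genes are active when the two siRNAs give the same sign, summing to ±2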
- Calls: active = both siRNAs shift cisplatin killing the same way; inactive = no consistent shift, or siRNA harmful alone
Here is an unselected part of about 23,000 reagents. Of all reagents, 455 (2%) were called active. 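Active includes both protection and sensitisation; some change values fall well beyond the stated -50 to +50 range.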 Further read-outs or replicates are left out here. Reagent sequences are not shown. The record does not give: the amount of reagent.

two-siRNA summed score (-2 to +2),mean protection from cisplatin (shift in death) (%),"protection from cisplatin (shift in death), siRNA C (%)",activity call,gene symbol
0,24.5,43.5,inactive,LOC389168
0,4.6,3.8,inactive,SF3B5
0,-4.7,-24.9,inactive,WNK2
0,3.8,0.6,inactive,PGLYRP4
1,19.4,30.8,inactive,LOC389031
0,6,-5.7,inactive,CPQ
0,-0.3,-17.4,inactive,CYP2B6
-1,-21.1,-30.6,inactive,MCOLN1
0,13.3,17.7,inactive,LINC02209
-1,-6.2,-1.1,inactive,IQCF2
0,1.2,12,inactive,ATP11B
-1,-10.6,-27,inactive,MTHFSD
0,15.8,13.3,inactive,LOC390773
0,5.8,9.1,inactive,OR2Y1
0,11.5,12.5,inactive,H3C14
0,2,7.1,inactive,GOLGA3
0,0.5,7.8,inactive,LOC283247
0,1.3,6.6,inactive,ZHX2
0,-2.8,-0.8,inactive,PRPH
0,2.9,-7.3,inactive,GP9
0,-1.9,3.7,inactive,GPR50
0,-15.7,-5.7,inactive,AKT1
-1,-3.2,-14.8,inactive,WRAP53
0,11.3,8.2,inactive,CAMKK1
0,-4.1,-13.1,inactive,MTCH2
1,5.9,17.8,inactive,NPPA
1,17.2,23.8,inactive,OR5B21
1,5.4,12.2,inactive,LOC340736
0,2.8,11.1,inactive,PIWIL2
-2,-21.1,-19.4,active,IFNG
0,9.9,8.9,inactive,PRKCQ-AS1
1,4.8,-2.3,inactive,TAAR6
1,18.3,19.2,inactive,DNAJB1
-1,-18.6,-1.4,inactive,APEH
0,8.4,14.7,inactive,LOC440833
0,11.8,-0.4,inactive,PVR
0,5.3,5,inactive,HELZ
-1,-8.4,-17.7,inactive,ASB6
0,-0.2,4.8,inactive,MPHOSPH9
-1,-14.5,-27.9,inactive,SCAF1
0,6.5,4.2,inactive,RPL10L
0,-1,-3.6,inactive,FAM161B
0,8.7,15.3,inactive,GABARAPL1
0,-2.4,-3.8,inactive,LEFTY2
-1,-7.7,-3,inactive,PTGR1
1,19.6,19.2,inactive,SIGLEC6
0,9,-10,inactive,MYH7B
-1,-10.1,-15,inactive,CFAP58
0,12.5,22.5,inactive,ANGEL1
0,-5.5,-0.1,inactive,LOC440464
0,-6.8,-0.2,inactive,NOP2
0,5,-16.4,inactive,GPR146
1,12.9,10.8,inactive,ZC3H7B
0,8.3,2.5,inactive,CHST14
0,-13,-12.9,inactive,SLC6A7
0,4.7,6.1,inactive,CAPZB
-1,-25.9,-31.1,inactive,PGRMC1

Laid out differently: entries from further up
| two-siRNA summed score (-2 to +2) | mean protection from cisplatin (shift in death) (%) | protection from cisplatin (shift in death), siRNA C (%) | activity call | gene symbol |
| --- | --- | --- | --- | --- |
| 0 | 1.2 | 12 | inactive | ATP11B |
| -1 | -10.6 | -27 | inactive | MTHFSD |
| 0 | 15.8 | 13.3 | inactive | LOC390773 |
| 0 | 5.8 | 9.1 | inactive | OR2Y1 |
| 0 | 11.5 | 12.5 | inactive | H3C14 |
| 0 | 2 | 7.1 | inactive | GOLGA3 |
| 0 | 0.5 | 7.8 | inactive | LOC283247 |
